These are yes or no findings as the source states them, for the method shown. Binding seen in cells or lysates may run through a third protein. Here binding means that the protein was enriched with, or labelled near, the bait; the list need not be complete.
Molecular target: RORC (bait of the mass spectrometry of RORC-bound proteins) (UniProt P51449)
Assay: affinity purification with mass spectrometry; mass spectrometry of proteins bound to RORC in NK-92 cells

Amino acid sequences for entries named in this document (tags omitted).
UniProt P51449: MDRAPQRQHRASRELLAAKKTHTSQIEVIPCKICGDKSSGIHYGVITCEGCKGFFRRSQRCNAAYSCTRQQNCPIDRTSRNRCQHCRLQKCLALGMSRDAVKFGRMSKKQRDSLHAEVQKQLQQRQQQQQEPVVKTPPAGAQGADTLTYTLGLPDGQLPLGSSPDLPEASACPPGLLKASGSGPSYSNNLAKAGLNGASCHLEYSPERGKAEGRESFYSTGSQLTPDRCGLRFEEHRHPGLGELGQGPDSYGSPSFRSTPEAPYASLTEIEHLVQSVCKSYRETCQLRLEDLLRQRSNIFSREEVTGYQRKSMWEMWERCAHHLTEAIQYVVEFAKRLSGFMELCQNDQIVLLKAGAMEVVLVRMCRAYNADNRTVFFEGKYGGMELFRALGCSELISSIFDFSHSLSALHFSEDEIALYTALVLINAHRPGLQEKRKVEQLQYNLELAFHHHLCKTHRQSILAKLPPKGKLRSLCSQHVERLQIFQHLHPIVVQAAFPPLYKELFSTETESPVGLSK
UniProt Q13547: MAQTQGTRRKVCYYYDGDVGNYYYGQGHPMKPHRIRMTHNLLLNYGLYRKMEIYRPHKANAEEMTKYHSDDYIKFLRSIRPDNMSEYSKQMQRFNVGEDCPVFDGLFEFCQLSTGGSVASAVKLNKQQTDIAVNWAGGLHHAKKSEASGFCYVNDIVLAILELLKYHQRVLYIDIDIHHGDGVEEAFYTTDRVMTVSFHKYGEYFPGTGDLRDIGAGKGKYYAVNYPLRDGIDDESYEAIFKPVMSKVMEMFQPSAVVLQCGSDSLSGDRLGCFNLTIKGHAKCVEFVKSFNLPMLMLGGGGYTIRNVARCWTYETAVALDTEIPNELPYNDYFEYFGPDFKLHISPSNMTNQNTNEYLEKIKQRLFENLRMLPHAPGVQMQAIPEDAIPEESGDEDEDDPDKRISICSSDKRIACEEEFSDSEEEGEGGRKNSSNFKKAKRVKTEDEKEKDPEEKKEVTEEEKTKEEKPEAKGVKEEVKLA
UniProt Q09472: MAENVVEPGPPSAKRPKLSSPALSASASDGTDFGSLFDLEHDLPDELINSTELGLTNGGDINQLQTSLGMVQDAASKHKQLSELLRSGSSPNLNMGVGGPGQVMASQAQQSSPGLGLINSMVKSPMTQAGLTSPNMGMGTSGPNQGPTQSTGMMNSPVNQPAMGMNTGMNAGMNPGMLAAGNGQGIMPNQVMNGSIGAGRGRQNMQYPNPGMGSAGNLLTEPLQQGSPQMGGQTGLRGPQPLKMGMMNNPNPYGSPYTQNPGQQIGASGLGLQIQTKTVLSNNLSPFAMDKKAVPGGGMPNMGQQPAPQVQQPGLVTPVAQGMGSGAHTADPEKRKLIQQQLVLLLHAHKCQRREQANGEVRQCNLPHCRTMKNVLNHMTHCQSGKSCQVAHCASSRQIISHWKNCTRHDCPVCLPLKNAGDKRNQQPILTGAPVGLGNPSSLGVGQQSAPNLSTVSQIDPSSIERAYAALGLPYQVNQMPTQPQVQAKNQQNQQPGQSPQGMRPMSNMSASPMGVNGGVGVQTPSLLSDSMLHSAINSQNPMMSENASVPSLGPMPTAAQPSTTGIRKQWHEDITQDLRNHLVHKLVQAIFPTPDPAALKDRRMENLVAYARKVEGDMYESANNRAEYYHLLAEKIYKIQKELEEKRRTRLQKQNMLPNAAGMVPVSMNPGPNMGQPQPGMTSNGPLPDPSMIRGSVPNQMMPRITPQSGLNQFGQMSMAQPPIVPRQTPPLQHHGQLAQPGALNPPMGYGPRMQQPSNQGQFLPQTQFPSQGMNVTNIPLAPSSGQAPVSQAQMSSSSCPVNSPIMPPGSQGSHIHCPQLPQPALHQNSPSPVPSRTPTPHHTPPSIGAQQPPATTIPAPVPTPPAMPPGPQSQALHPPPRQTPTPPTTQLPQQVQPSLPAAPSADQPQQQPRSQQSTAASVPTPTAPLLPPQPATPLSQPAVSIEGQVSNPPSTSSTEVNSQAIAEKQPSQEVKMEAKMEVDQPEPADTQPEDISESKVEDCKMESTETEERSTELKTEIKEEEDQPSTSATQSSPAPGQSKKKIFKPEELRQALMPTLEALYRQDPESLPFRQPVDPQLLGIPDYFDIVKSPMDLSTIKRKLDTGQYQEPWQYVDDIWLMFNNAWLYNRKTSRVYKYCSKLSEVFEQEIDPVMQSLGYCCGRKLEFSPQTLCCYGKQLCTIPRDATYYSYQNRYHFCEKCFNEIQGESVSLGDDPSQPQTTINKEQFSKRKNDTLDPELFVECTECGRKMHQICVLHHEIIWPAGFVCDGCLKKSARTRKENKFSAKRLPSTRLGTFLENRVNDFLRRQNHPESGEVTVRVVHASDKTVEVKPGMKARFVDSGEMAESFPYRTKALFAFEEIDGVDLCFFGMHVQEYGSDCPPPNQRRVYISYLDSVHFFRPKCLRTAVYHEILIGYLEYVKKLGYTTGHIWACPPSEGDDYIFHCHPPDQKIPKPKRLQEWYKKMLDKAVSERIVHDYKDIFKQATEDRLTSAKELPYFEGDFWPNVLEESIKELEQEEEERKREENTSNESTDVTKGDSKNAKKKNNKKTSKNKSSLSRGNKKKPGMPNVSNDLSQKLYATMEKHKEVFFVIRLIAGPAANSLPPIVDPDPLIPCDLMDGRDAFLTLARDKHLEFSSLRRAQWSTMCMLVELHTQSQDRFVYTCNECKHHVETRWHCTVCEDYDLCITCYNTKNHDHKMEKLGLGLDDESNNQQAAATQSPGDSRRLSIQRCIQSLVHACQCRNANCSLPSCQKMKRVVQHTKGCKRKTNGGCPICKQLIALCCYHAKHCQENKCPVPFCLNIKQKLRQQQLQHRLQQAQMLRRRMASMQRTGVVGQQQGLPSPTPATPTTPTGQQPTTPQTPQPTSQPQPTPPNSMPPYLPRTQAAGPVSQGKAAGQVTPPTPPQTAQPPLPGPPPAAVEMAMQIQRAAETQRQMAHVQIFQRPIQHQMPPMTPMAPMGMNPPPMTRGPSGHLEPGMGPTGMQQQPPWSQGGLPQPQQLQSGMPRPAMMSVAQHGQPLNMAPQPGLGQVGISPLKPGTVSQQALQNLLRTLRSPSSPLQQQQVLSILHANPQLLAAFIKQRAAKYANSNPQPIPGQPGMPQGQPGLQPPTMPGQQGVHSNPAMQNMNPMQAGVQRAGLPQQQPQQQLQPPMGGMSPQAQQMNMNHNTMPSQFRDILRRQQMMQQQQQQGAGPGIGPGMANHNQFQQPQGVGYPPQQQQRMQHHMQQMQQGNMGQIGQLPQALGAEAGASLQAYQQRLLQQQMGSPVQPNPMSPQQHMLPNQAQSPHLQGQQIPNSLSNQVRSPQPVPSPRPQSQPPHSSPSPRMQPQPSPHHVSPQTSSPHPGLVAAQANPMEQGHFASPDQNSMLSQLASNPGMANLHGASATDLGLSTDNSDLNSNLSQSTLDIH
UniProt Q92793: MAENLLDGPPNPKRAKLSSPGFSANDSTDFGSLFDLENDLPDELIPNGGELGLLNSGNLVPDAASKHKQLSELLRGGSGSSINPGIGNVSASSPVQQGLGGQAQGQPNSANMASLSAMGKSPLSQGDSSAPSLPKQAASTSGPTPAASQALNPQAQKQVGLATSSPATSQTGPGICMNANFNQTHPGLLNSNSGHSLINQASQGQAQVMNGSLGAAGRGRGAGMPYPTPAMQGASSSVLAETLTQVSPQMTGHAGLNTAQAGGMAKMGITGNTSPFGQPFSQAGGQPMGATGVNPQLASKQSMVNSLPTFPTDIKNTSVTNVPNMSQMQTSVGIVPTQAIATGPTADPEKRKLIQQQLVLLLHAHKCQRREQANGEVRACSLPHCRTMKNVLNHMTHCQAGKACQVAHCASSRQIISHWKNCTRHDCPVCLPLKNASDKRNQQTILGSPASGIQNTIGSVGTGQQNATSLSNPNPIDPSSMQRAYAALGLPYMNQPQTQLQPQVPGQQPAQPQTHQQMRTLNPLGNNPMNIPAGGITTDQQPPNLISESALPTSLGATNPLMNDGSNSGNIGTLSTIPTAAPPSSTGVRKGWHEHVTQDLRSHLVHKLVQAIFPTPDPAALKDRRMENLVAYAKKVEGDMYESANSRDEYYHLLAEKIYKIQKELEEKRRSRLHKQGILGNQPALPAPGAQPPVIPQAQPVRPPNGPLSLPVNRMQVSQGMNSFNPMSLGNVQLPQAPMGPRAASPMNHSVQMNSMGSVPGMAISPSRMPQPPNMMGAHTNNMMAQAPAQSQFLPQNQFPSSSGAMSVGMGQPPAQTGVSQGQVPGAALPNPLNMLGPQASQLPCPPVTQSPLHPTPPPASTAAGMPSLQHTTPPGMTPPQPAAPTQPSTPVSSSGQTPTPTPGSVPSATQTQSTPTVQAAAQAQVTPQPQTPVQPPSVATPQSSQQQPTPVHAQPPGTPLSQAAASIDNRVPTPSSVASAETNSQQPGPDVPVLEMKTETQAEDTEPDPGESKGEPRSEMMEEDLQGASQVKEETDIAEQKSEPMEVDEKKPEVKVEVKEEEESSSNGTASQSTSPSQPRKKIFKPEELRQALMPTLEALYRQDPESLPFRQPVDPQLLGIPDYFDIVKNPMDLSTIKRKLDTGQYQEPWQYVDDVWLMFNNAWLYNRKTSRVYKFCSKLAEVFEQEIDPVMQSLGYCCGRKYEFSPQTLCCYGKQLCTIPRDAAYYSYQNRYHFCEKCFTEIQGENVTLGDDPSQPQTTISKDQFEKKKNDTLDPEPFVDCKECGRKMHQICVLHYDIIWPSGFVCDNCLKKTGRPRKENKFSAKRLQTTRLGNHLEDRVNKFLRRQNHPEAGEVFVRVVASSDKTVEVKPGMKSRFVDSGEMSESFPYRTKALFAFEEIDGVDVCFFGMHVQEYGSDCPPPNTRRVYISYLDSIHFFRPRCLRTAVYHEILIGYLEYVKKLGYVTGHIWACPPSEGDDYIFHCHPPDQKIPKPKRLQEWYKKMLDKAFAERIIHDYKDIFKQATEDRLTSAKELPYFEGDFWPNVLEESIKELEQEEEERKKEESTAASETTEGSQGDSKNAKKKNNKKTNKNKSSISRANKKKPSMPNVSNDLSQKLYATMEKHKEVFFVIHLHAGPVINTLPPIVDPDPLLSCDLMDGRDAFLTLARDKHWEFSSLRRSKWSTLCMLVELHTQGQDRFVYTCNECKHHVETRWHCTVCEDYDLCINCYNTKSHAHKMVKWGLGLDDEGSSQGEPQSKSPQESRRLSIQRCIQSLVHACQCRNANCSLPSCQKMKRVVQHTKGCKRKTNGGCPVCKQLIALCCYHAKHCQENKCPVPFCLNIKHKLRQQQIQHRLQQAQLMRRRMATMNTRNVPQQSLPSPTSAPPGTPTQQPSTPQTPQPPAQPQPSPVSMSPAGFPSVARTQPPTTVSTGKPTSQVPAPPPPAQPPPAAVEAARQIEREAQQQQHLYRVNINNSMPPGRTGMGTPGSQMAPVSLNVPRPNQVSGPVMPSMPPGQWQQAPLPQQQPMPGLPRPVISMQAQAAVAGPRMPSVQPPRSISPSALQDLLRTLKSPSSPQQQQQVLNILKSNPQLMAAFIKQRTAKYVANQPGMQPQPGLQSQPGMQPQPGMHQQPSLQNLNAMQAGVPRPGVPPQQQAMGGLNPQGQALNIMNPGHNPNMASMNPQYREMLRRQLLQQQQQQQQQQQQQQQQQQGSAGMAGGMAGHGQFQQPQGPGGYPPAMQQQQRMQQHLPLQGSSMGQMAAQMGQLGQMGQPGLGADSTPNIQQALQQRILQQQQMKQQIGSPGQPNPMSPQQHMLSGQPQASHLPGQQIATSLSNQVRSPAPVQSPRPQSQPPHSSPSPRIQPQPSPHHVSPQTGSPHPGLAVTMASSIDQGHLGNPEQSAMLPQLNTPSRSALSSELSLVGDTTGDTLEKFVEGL

| Substance | binding |
| --- | --- |
| HDAC1 (found by mass spectrometry with RORC in NK-92 cells) (from UniProt Q13547 1-482) (enzyme) | binds |
| p300 (found by mass spectrometry with RORC in NK-92 cells) (from UniProt Q09472 1-2414) (enzyme) | binds |
| CBP (found by mass spectrometry with RORC in NK-92 cells) (from UniProt Q92793 1-2442) (enzyme) | binds |

Source: article PMC12095603
